Measurements as given in PMC8835667.
These are yes or no findings as the source states them, for the method shown. In cells and extracts the contact can be indirect.

Protein sequences, listed by entry. Tags and fused reporters are not part of them. Residues count along the entry.
UniProt Q13263: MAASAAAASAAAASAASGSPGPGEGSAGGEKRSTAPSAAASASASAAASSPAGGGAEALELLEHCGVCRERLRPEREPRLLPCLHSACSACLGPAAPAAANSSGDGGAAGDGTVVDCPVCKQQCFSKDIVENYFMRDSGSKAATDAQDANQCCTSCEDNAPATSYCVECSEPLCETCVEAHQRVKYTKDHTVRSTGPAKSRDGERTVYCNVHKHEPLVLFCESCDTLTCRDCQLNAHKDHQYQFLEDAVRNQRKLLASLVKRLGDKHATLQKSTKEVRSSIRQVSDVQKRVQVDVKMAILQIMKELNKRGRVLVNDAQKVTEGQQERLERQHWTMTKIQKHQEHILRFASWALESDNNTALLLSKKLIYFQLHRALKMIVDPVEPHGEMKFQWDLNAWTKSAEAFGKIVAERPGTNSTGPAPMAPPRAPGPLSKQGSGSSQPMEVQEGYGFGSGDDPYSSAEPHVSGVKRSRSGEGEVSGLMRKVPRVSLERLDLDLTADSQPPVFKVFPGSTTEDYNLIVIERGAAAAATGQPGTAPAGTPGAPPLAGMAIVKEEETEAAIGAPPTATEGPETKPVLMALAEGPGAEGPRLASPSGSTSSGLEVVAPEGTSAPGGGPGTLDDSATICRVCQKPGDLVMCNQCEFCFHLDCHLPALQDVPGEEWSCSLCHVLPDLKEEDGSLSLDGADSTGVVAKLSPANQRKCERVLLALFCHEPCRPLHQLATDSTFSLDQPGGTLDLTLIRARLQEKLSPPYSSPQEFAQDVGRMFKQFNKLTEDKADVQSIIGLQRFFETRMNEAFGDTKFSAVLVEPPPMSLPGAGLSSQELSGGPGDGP
UniProt Q9NQV7, residues 24-97: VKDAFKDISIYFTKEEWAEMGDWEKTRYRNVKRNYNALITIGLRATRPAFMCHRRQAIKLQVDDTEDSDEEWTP

Target: tripartite motif containing 28 (TRIM28) (human (endogenous in HeLa)) (UniProt Q13263)
Assay: co-IP; HeLa cells transfected with GST-KRAB fusion plasmids; extracts in buffer TST (20 mM TRIS/HCl pH 7.5, 60 mM KCl, 15 mM NaCl, 10 mM MgCl2, 1 mM CaCl2, 250 mM sucrose, 0.5% Triton X-100); endogenous TRIM28 precipitated with mouse monoclonal anti-TRIM28 (1Tb1A9) and magnetic protein G beads; Western blot with anti-GST

binding: no binding
Substance: GST-PRDM9-A/24-97 (from UniProt Q9NQV7 24-97) (domain or fragment)
